What all share (assay): odorant receptor activation (CRE luciferase / Renilla) (fold of no-odor wells); higher = more activation
Holding throughout (settings): 100 µM

For test [1], the system named is OR10C1 clone 1065.
The test system of test [2] is OR10G3 S73G clone 1272.
Test [3] deals with OR10G4 A9V/M134V/V195E/R235G/K295Q clone 1119.
Test [4] relates to OR10G6 clone 1108.
Test [5] deals with OR10G7 clone 1589.
In test [6] the test system is OR10G8 clone 1396.
The test system of test [7] is OR10G9 A90T/M134V clone 1192.
The subject of test [8] is OR10H1 clone 1291.
The test system of test [9] is OR10H2 L40Q clone 1461.
Test [10] relates to OR10H3 clone 1525.
For test [11], the system named is OR10H5 A224D clone 1294.
The test system of test [12] is OR10J1 clone 1711.
Test [13] relates to OR10J3 clone 1458.
For test [14], the system named is OR10J5 R233W clone 1410.
In test [15] the test system is OR10J5 clone 1037.
Test [16] concerns OR10K1 clone 1024.
Test [17] has as its system OR10K2 clone 1040.
The subject of test [18] is OR10P1 clone 1254.
In test [19] the test system is OR10Q1 clone 1202.
For test [20], the system named is OR10R2 A191T/E216G/L239F clone 1304.

Values joined by “and” are separate entries in the source; they are usually repeats but may differ in a detail not shown here. Identical values can stand only once. The list shows a part of the results. Single wells; the ratio to wells without odorant was worked out here, and repeats agree poorly.

As to `c1cnccn1` [pyrazine], the odorant receptor activation in test [1] was found to be 1.04; in [2], 0.801; in test [3] it was 0.932; in test [4], 0.985; in [5], 0.87; in [6], 1.09. The odorant receptor activation in [7] is 0.878; in [8], 1.01; in test [9] it was 0.883; in test [10] it was 0.91; in test [11], 0.918; in test [12], 0.81. The odorant receptor activation in [13] was 0.977; in test [14] it was 1.1; in test [15], 0.843; in test [16], 1.05; in test [17], 1.23; in [18] it was 0.778. Further, the odorant receptor activation is 0.698 in test [19] and 0.876 in [20].
`CCCCCC(=O)O` [caproic acid]: the odorant receptor activation in test [1] worked out at 1.05; in [2], 0.92; in [3] it was 0.898; in test [4], 0.879; in test [5] it was 0.418; in test [6] it was 0.364. For the same molecule, the odorant receptor activation in test [7] was found to be 1.09; in test [8], 1.1; in [9] it was 1.19; in test [10], 0.877; in [11] it was 0.852; in test [12] it was 0.871. Besides, the odorant receptor activation stood at 1.34 in test [13]; 0.169 in [14]; 1.17 in test [15]; 1.24 in [16]; 0.988 in test [17]; 0.66 in [18]. Besides, the results for the odorant receptor activation in test [19] and in test [20] were 1.14 and 0.849, respectively.
`CCCCCCCCCCC=O` [undecanal]: the odorant receptor activation in [1] worked out at 0.778; in test [2], 0.982; in test [3], 1.26; in [4], 0.937; in test [5], 1.23; in test [6] it was 0.986. Besides, the odorant receptor activation worked out at 0.963 in [7]; 0.963 in [8]; 1.08 in [9]; 0.961 in test [10]; 1.05 in test [11]; 0.988 in test [12]. Further, the odorant receptor activation in test [13] is 0.893; in [14] it was 1.19; in test [15], 1.19; in [16], 1.04; in test [17] it was 1.11; in test [18], 1.07. The odorant receptor activation in test [19] is 0.955; in test [20], 0.954.
Regarding `CC(C)C(=O)O` [isobutyric acid], the odorant receptor activation in [1] is 2.5; in test [2], 1.17 and 0.843; in [3], 1.27; in test [4], 1.32; in test [5], 11.8; in test [6] it was 0.603. Moreover, the odorant receptor activation was 0.887 in test [7]; 1.14 and 1.01 in test [8]; 0.738 and 0.933 in test [9]; 0.98 and 0.823 in test [10]; 0.875 and 1.18 in [11]; 0.874 in [12]. Moreover, the odorant receptor activation was 0.948 in [13]; 0.938 in test [14]; 0.97 in test [15]; 0.911 in test [16]; 0.888 in test [17]; 1.09 and 1.5 in test [18]. The odorant receptor activation is 1.19 in [19]; 1.18 and 0.526 in test [20].
Turning to `CC=Cc1ccc(O)c(OC)c1` [isoeugenol], the odorant receptor activation in test [1] is 2.42; in test [2], 1.07 and 2.55; in [3] it was 6.79; in test [4] it was 1.48; in test [5], 14.1; in test [6], 0.945. Moreover, the odorant receptor activation in test [7] is 1.43; in [8] it was 1.46 and 0.916; in test [9], 0.976 and 2.42; in test [10] it was 1.11 and 2.3; in test [11], 1.39 and 1.12; in [12], 0.974. For the same molecule, the odorant receptor activation in [13] is 6.42; in [14], 1.53; in test [15], 1.9; in test [16] it was 0.854; in test [17], 0.947; in [18], 1.75 and 4.23. For the same molecule, the odorant receptor activation in [19] was 1.2; in test [20] it was 0.96 and 0.879.
`COc1cc(C=O)ccc1O` [vanillin]: the odorant receptor activation turned out to be 0.805 in [1]; 6 in [2]; 2.08 in test [3]; 0.915 in test [4]; 1.35 in [5]; 0.924 in test [6]. The odorant receptor activation is 1.45 in test [7]; 1.01 in test [8]; 1.04 in [9]; 1 in test [10]; 0.85 in [11]; 0.964 in test [12]. The odorant receptor activation came out at 1.32 in test [13]; 0.988 in [14]; 0.974 in test [15]; 0.894 in test [16]; 0.995 in test [17]; 0.877 in test [18]. Also, the values for the odorant receptor activation in [19] and in test [20] were 0.87 and 0.966, respectively.
Consider `CC(C)CC(=O)O` [isovaleric acid], for which the odorant receptor activation in test [1] worked out at 0.95; in [2], 0.97; in test [3], 1.22; in test [4] it was 1.4; in test [5], 11.3; in test [6] it was 0.885. Besides, the odorant receptor activation in test [7] amounted to 1.33; in [8] it was 0.859; in test [9], 0.76; in [10], 1.06; in test [11], 0.84; in test [12], 0.941. Also, the odorant receptor activation in [13] was 1.1; in test [14], 0.934; in [15] it was 1.29; in [16] it was 1.4; in test [17], 1.05; in [18], 0.82. Also, the odorant receptor activation in [19] is 1.45; in test [20], 0.726.

For the origin of these results see the odorant receptor screen of Mainland et al. (2015).
